Results as given in PubChem BioAssay AID2685 (National Center for Advancing Translational Sciences (NCATS), 2010).
The other results are listed elsewhere or left out. These are further read-outs of the screen, such as a control signal, another cell line or another target. No call is given for them. Most of these compounds were active or inconclusive in the main read-out, so they are no random draw. The note in brackets gives the kind of curve behind each potency; many fits are weak.

Assay: qHTS Assay for Lipid Storage Modulators in Drosophila S3 Cells;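 on cell number change: cells counted by Cell Tracker Red CMTPX staining in the red channel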
Conditions: BODIPY lipid droplet fluorescence, 18-24 h; for cell number change: measured here: cell count max response, cells fed with added oleic acid
Procedure, shortened: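 Laser-scanning cytometry quantifies lipid droplet accumulation (500–530 nm total intensity; droplet/cell object ratio) in oleic acid-fed (400 uM added) Drosophila S3 cells treated with a concentration series. 20 uM Triacsin C defined 100% inhibition.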

[1] = measured here: cell number channel AC50, cells fed with added oleic acid
[2] = measured here: lipid fluorescence (Fed channel) AC50, cells fed with added oleic acid

Structure (SMILES) | cell number change | AC50 [1] | AC50 [2]
Cc1cccnc1NC(=S)Nc1ccc(Br)cc1Cl | -9.49% |  | 
COc1ccc(NC(=O)CN2CCN(CC(=O)Nc3ccccc3F)CC2)cc1OC | 17% |  | 
O=C(Nc1cc(=O)[nH]c(=O)[nH]1)c1cc(Cl)ccc1Cl | 16.1% | 0.0731 µM [rising, full curve, poor fit] | 
COc1ccccc1C(=O)Nc1c[nH]c(=O)[nH]c1=O | -3.85% |  | 29.1 µM [falling, single point]
Cc1nc(-c2ccc(NC(=O)Cc3ccccc3)cc2)cs1 | 319% |  | 
N/C(=N\OC(=O)Cc1ccc(Cl)cc1)c1cccnc1 | -4.61% |  | 
O=C(Nc1nnc(-c2ccc3c(c2)CCCC3)o1)c1ccccc1 | 4.9% | 6.51 µM [falling, single point] | 
CCOCc1nnc(NC(=O)CSc2ccccc2)s1 | 96.6% | 18.4 µM [rising, single point] | 29.1 µM [rising, single point]
CCOC(=O)N1CCN(S(=O)(=O)c2ccc(C(=O)N(CCN(CC)CC)c3nc4c(C)cccc4s3)cc2)CC1 | 39.7% | 35.5 µM [rising, partial curve] | 35.5 µM [rising, partial curve, poor fit]
Cc1ccc2[nH]c(C)c(CCNC(=O)c3c(N)no[n+]3[O-])c2c1 | -22.6% |  | 29.1 µM [falling, single point]
C#CCOCCOCCOCCNc1nc(N2CCN(C(=O)CCCCCCCCCCNC(=O)[C@H]([C@@H](C)CC)n3cc(CCCCCN)nn3)CC2)nc(N2CCN(C(=O)CCCCCCCCCCNC(=O)[C@H](CO)n3cc(CCCCCN)nn3)CC2)n1 |  |  | 1.84 µM [falling, partial curve, poor fit]
N#Cc1c(SCC(=O)OCc2ccccc2)nsc1SCC(=O)OCc1ccccc1 | 1.82% |  | 29.1 µM [falling, single point]
O=C1CS/C(=N/N=C/c2ccco2)N1Cc1ccc(F)cc1 | 55.9% | 29.1 µM [rising, single point] | 
Cc1ccc(N(Cc2cc3ccc(C)cc3[nH]c2=O)S(=O)(=O)c2ccccc2)cc1 | -8.4% |  | 14.6 µM [falling, partial curve, poor fit]
CCOc1ccc(N(CC(=O)O)S(=O)(=O)c2ccc(F)cc2)cc1 | 3.94% |  | 
Cc1nc2ccccn2c1C(=O)CSc1ccc(Cl)cc1Cl | 25% |  | 6.51 µM [rising, partial curve]
O=C1NC[C@@H](Cc2ccc(O)cc2)N(CCc2cccc(F)c2)C1=O | 13.9% |  | 
CCOc1ccc(NC(=O)N2CCC(c3ccc(C)cc3)C2)cc1 (stereo not drawn) | 2.84% |  | 
C=CCn1c(SCc2ccc(OC)cc2)nnc1-c1cccnc1 | -3.85% |  | 0.13 µM [rising, full curve, poor fit]
O=C(/C=C/c1ccccc1)N/C(=C/c1ccccc1)C(=O)Nc1ccccc1O | 136% |  | 
Cc1cc2c(c(=O)o1)C1(C(=O)N(C)c3ccccc31)C(C#N)=C(N)O2 (stereo not drawn) | -17.5% |  | 

Structure (SMILES) | cell number change | AC50 [1] | AC50 [2]
OC(c1ccccc1)C1CN(Cc2ccccc2)CCC1(O)c1ccccc1 (stereo not drawn) | -9.79% |  | 0.651 µM [falling, full curve, poor fit]
COC(=O)[C@H]1C[C@H](C(=O)O)[C@@H](C)C1(C)C | -19.8% |  | 29.1 µM [falling, single point]
CCN(CC)S(=O)(=O)c1cc(NC(=O)COC(=O)C2CCC2)ccc1C | -11.5% |  | 7.31 µM [falling, partial curve]
COc1cc(Cl)c(C)cc1NC(=O)c1cccc(OC)c1OC | 131% | 11.6 µM [rising, partial curve] | 
O=C(CCCC(=O)OCC(=O)NC1CCCC1)Nc1ccccn1 | -17.2% |  | 8.2 µM [falling, partial curve]
O=C(NCc1ccccc1Cl)c1cc(C(=O)C2CC2)c[nH]1 | -13% |  | 35.5 µM [falling, single point]
COc1ccc(NC(=O)C(=O)NCC2CCCN2S(=O)(=O)c2cccs2)cc1 (stereo not drawn) | -11.8% |  | 
CCC(=O)Nc1ccc(-c2nnc(SCC(=O)N3CCCCC3)n2C)cc1 | 0.414% |  | 
CCN(CC)S(=O)(=O)c1ccc(C)c(NC(=O)CNc2cccc(S(=O)(=O)N3CCOCC3)c2)c1 |  |  | 6.51 µM [rising, single point]
COc1ccccc1N1CCN(C(=O)C2CCC(CNS(=O)(=O)c3ccc(NC(C)=O)cc3)CC2)CC1 (stereo not drawn) | 11% |  | 0.206 µM [rising, full curve, poor fit]
CCOC(=O)CSc1nnc2c3ccccc3n(C)c2n1 | 1.29% |  | 
CCOC(=O)c1ccc2c(c1)nc(SCC(=O)N1CCCCC1)n2CC | -7.56% |  | 29.1 µM [falling, single point]
O=C(COc1ccc(Cl)cc1Cl)NCCCn1ccnc1 | 13.1% |  | 0.58 µM [rising, full curve, poor fit]
CCOC(=O)/C(=C\Nc1ccc(OC(F)(F)F)cc1)Sc1ncc(C(F)(F)F)cc1Cl | 36.9% | 1.16 µM [rising, partial curve] | 20.6 µM [rising, single point]
Cc1ccc(C(=O)c2ccc([N+](=O)[O-])cc2)c(C)c1 | -18.4% | 1.84 µM [rising, partial curve] | 29.1 µM [falling, single point]
N#Cc1sc2nc(N3CCCCC3)c3c(c2c1N)CCCC3 | -73% | 13 µM [falling, partial curve] | 14.6 µM [falling, partial curve]
Cc1cc(NC(=O)CSc2nc(CC(C)(C)C)nc3c2c(=O)n(C)c(=O)n3C)no1 |  | 0.259 µM [rising, partial curve] | 0.259 µM [rising, partial curve]
Cc1ccc(CC(=O)Nc2ccc(S(=O)(=O)N3CCOCC3)cc2)cc1C | -49.4% | 29.1 µM [falling, partial curve, poor fit] | 
O=C(NNC(=S)Nc1ccccc1Cl)c1ccccc1 | -11.9% |  | 29.1 µM [rising, single point]
COc1cccc(NC(=O)Cn2nnc(C(=O)NCCc3ccccc3)c2N)c1 |  |  | 0.00461 µM [falling, full curve, poor fit]
COc1cccc(COC(=O)C2CCN(S(=O)(=O)c3ccc(Cl)cc3)CC2)c1OC | 24.3% |  | 6.51 µM [falling, single point]

Structure (SMILES) | cell number change | AC50 [1] | AC50 [2]
Cc1sc2nc(COC(=O)c3ccc(N4CCCC(C)C4)c([N+](=O)[O-])c3)[nH]c(=O)c2c1C (stereo not drawn) | 33% | 2.91 µM [rising, full curve] | 
O=C(O)c1ccc(C2SCC(=O)N2Cc2ccccc2)cc1 (stereo not drawn) | -78% | 29.1 µM [falling, single point] | 0.731 µM [falling, single point]
CCOC(=O)C1C(=O)N(C(=O)c2ccc(OC)cc2)CC1c1ccccc1 (stereo not drawn) | 8.43% |  | 
Cc1ccc(Sc2ncccc2COC(=O)Nc2ccccc2)cc1 | -37.8% |  | 13 µM [falling, partial curve, poor fit]
COc1cc(S(=O)(=O)Nc2ccc(C)cc2)ccc1N=Cc1c(C)[nH]n(-c2ccc(C)cc2)c1=O | -1.9% |  | 0.146 µM [rising, full curve, poor fit]
COc1cc(NC(=O)COC(=O)CCc2cc(OC)c(OC)c(OC)c2)cc(OC)c1 | -3.69% |  | 
C=CCn1c(SCC(=O)NC2CCCCC2)nnc1-c1ccc(OC)cc1 | 26.1% |  | 7.31 µM [rising, partial curve]
Cn1cc(C(=O)Nc2ccc(C#N)cc2)c2ccccc2c1=O | 2.78% |  | 0.58 µM [rising, single point]
CCOc1ccc2oc(C(=O)NCc3nc4ccccc4[nH]3)c(C)c2c1 | -12.4% |  | 29.1 µM [falling, single point]
CC(=O)N1CCc2c(sc(NC(=O)CCS(=O)(=O)c3ccccc3)c2C#N)C1 | -0.99% |  | 
COc1ccc(C2c3ccc4ccccc4c3Oc3ncn(CCO)c(=N)c32)cc1 (stereo not drawn) | 9.01% |  | 0.58 µM [falling, single point]
O=C(OCc1csc(-c2ccccc2)n1)c1ccccc1O | 47.2% | 20.6 µM [rising, single point] | 29.1 µM [rising, single point]
COc1cc(C(=O)Nc2ccc(N3CCCS3(=O)=O)cc2)c([N+](=O)[O-])cc1OC | -29.5% |  | 18.4 µM [falling, partial curve, poor fit]
CC1CCc2cc(F)cc3c(O)c(C(=O)NCCN(C)C)c(=O)n1c23 (stereo not drawn) | -19.1% |  | 29.1 µM [rising, single point]
COc1cc(NC(=O)C/C(C)=N/NC(=O)C(=O)NC2CCCCC2)c(OC)cc1Cl | 58.9% | 32.6 µM [rising, partial curve, poor fit] | 23.1 µM [rising, partial curve, poor fit]
Cc1cc(C)n(-c2cccc(C(=O)O)c2)n1 | 19.5% |  | 29.1 µM [rising, single point]
Cc1nnc(NC(=O)CN2C(=O)c3ccccc3S2(=O)=O)s1 | -52.1% | 0.731 µM [falling, full curve] | 29.1 µM [falling, single point]
COc1cc(/C=N\Nc2nc(-c3cccs3)c(NC(C)=O)s2)ccc1O | 24.5% |  | 29.1 µM [rising, single point]
CCOC(=O)Cn1c(=N)n(Cc2ccccc2)c2ccccc21 | 22.5% |  | 25.9 µM [rising, single point]

Entries from the list above that have a nitro group on carbon:
Structure (SMILES) | cell number change | AC50 [1] | AC50 [2]
Cc1ccc(C(=O)c2ccc([N+](=O)[O-])cc2)c(C)c1 | -18.4% | 1.84 µM [rising, partial curve] | 29.1 µM [falling, single point]
Cc1sc2nc(COC(=O)c3ccc(N4CCCC(C)C4)c([N+](=O)[O-])c3)[nH]c(=O)c2c1C (stereo not drawn) | 33% | 2.91 µM [rising, full curve] | 
COc1cc(C(=O)Nc2ccc(N3CCCS3(=O)=O)cc2)c([N+](=O)[O-])cc1OC | -29.5% |  | 18.4 µM [falling, partial curve, poor fit]
